Assay results as given in PubChem BioAssay AID2685 (National Center for Advancing Translational Sciences (NCATS), 2010).
This is one part of the list. Further columns of the screen follow, without active or inactive calls. The list favours compounds with an active or inconclusive main result. Potencies come from curve fits of mixed quality, noted in brackets.

Experiment: qHTS Assay for Lipid Storage Modulators in Drosophila S3 Cells;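 as to cell number change: cells counted by Cell Tracker Red CMTPX staining in the red channel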
Details: BODIPY lipid droplet fluorescence, 18-24 h; for cell number change: measured here: cell count max response, cells fed with added oleic acid
Procedure, shortened: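 Laser-scanning cytometry quantifies lipid droplet accumulation (500–530 nm total intensity; droplet/cell object ratio) in oleic acid-fed (400 uM added) Drosophila S3 cells treated with a concentration series. 20 uM Triacsin C defined 100% inhibition.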

[1] = measured here: cell number channel AC50, cells fed with added oleic acid
[2] = measured here: lipid fluorescence (Fed channel) AC50, cells fed with added oleic acid

SMILES	cell number change [%]	AC50 [1]	AC50 [2]
COc1cc(N)ccc1C(=O)O	-5.98	6.51 µM [falling, single point]	5.8 µM [falling, single point]
NS(=O)(=O)c1ccc(NC(=O)/C(=C/c2ccncc2)NC(=O)c2ccccc2)cc1	-0.451		
O=C(Nc1cc(-c2ccccc2)cs1)c1ccco1	-19.7		
CC(=O)c1cccc(CN2CCCCC2C(=O)Nc2ccc(Oc3ccccc3)nc2)c1 (configuration not stated)	2.79		3.66 µM [falling, single point]
Cc1cc(N2CCN(C)CC2)nc2ccc(NC(=O)CCC(=O)NCCCOC(C)C)cc12	6.14		29.1 µM [rising, single point]
COc1ccccc1NC(=O)N1CCCC1C(=O)NCCc1ccccc1 (configuration not stated)	0.525		29.1 µM [falling, single point]
CCOC(=O)C1CCCN(C2=NC(=O)/C(=C/c3ccc(OC)cc3)S2)C1 (configuration not stated)			0.651 µM [falling, full curve]
COc1cccc(/C=C2/Sc3ccc(C(=O)NCCN4CCCC4)cc3NC2=O)c1	9.56	2.59 µM [rising, partial curve]	6.51 µM [rising, single point]
Cc1cccc(C(=O)N(c2ccccn2)C(C)c2ccco2)c1 (configuration not stated)	-13.7		
CCOC(=O)Nc1ccc2c(c1)N(C(=O)CN)c1ccccc1CC2	3.86		29.1 µM [falling, single point]
O=C(Nc1ccc(F)cc1F)c1cccn1-c1ncc(C(F)(F)F)cc1Cl	21	7.31 µM [rising, partial curve, poor fit]	
Cc1ccc(NC(=O)NCc2ccncc2)cc1Cl	-1.19	6.51 µM [falling, partial curve, poor fit]	6.51 µM [falling, partial curve, poor fit]
NC(=O)c1ccc(NC(=O)CCC(=O)c2cccs2)cc1	5.98		8.2 µM [falling, partial curve]
Cc1oc(-c2cccc(Cl)c2)nc1CS(=O)(=O)CC(=O)NCCCN1CCOCC1	13		29.1 µM [rising, single point]
Cn1c(SCC(=O)c2ccc(-c3ccccc3)cc2)nnc1-c1ccco1			0.103 µM [falling, full curve, poor fit]
CC1(C)Cc2c(sc3ncn(N)c(=N)c23)CO1	-10.5		
CCOC(=O)NC(=O)/C(C#N)=C\NNc1ncc(C(F)(F)F)cc1Cl	-29.7		6.51 µM [rising, single point]
CC(C)CC(c1nnnn1Cc1ccco1)N1CCN(c2cccc(Cl)c2)CC1 (configuration not stated)	-33	20.6 µM [falling, partial curve, poor fit]	
O=S(=O)(c1ccccc1)N1CCN(c2ncnc3scc(-c4ccccc4)c23)CC1	20.2		
Cc1ccc(S(=O)(=O)NCCNC(=O)c2nonc2N)cc1	11.3		
Cc1ccc(-c2nc3ncccn3c2NC(=O)C2CC2)cc1	-7.69		0.00651 µM [falling, full curve, poor fit]

15 of the compounds above, as comma-separated lines:
SMILES,cell number change [%],AC50 [1],AC50 [2]
COc1ccccc1NC(=O)N1CCCC1C(=O)NCCc1ccccc1 (configuration not stated),0.525,,"29.1 µM [falling, single point]"
CCOC(=O)C1CCCN(C2=NC(=O)/C(=C/c3ccc(OC)cc3)S2)C1 (configuration not stated),,,"0.651 µM [falling, full curve]"
COc1cccc(/C=C2/Sc3ccc(C(=O)NCCN4CCCC4)cc3NC2=O)c1,9.56,"2.59 µM [rising, partial curve]","6.51 µM [rising, single point]"
Cc1cccc(C(=O)N(c2ccccn2)C(C)c2ccco2)c1 (configuration not stated),-13.7,,
CCOC(=O)Nc1ccc2c(c1)N(C(=O)CN)c1ccccc1CC2,3.86,,"29.1 µM [falling, single point]"
O=C(Nc1ccc(F)cc1F)c1cccn1-c1ncc(C(F)(F)F)cc1Cl,21,"7.31 µM [rising, partial curve, poor fit]",
Cc1ccc(NC(=O)NCc2ccncc2)cc1Cl,-1.19,"6.51 µM [falling, partial curve, poor fit]","6.51 µM [falling, partial curve, poor fit]"
NC(=O)c1ccc(NC(=O)CCC(=O)c2cccs2)cc1,5.98,,"8.2 µM [falling, partial curve]"
Cc1oc(-c2cccc(Cl)c2)nc1CS(=O)(=O)CC(=O)NCCCN1CCOCC1,13,,"29.1 µM [rising, single point]"
Cn1c(SCC(=O)c2ccc(-c3ccccc3)cc2)nnc1-c1ccco1,,,"0.103 µM [falling, full curve, poor fit]"
CC1(C)Cc2c(sc3ncn(N)c(=N)c23)CO1,-10.5,,
CCOC(=O)NC(=O)/C(C#N)=C\NNc1ncc(C(F)(F)F)cc1Cl,-29.7,,"6.51 µM [rising, single point]"
CC(C)CC(c1nnnn1Cc1ccco1)N1CCN(c2cccc(Cl)c2)CC1 (configuration not stated),-33,"20.6 µM [falling, partial curve, poor fit]",
O=S(=O)(c1ccccc1)N1CCN(c2ncnc3scc(-c4ccccc4)c23)CC1,20.2,,
Cc1ccc(S(=O)(=O)NCCNC(=O)c2nonc2N)cc1,11.3,,

More records:

SMILES	cell number change [%]	AC50 [1]	AC50 [2]
COCCNC(=O)/C(C#N)=C/c1cc(C(C)C)c(OC)cc1C	-42.3	16.4 µM [falling, single point]	20.6 µM [falling, partial curve, poor fit]
O=C1CC(/C=C/c2ccc(Cl)cc2)=Nc2ccccc2N1	45.9	2.06 µM [rising, full curve]	2.91 µM [rising, partial curve]
COc1ccc(C(=O)n2cc(C(=O)c3cc(C)ccc3O)cn2)cc1OC	34.3	29.1 µM [rising, single point]	
COc1cccc(CN(CC(=O)NCc2ccco2)C(=O)CNS(=O)(=O)c2ccccc2)c1	-0.435		
CCCc1c(C(=O)N/N=C/c2cccnc2)nnn1-c1nonc1N		0.00651 µM [rising, full curve, poor fit]	4.11 µM [rising, single point]
O=C1CC(c2ccc(Cl)cc2)n2nc(N3C(=O)c4ccccc4C3=O)nc2N1 (configuration not stated)	73.4	4.61 µM [rising, full curve]	6.51 µM [rising, single point]
Fc1ccc(NC(=S)NN=C2CCCCCC2)cc1	14.4		23.1 µM [rising, single point]
O=C(CCCn1c(=O)c2cccn2c2cccnc21)NCCc1ccc(Cl)cc1	-13		0.82 µM [falling, single point]
NC(=O)COC(=O)CCCSc1nc2ccccc2s1	-29		
O=C(N/N=C/c1cccc(NC(=O)c2ccc(Cl)cc2)c1)c1cccc(O)c1	16.9		9.2 µM [rising, partial curve]
COc1ccc(NS(=O)(=O)c2ccc3oc(SCC(N)=O)nc3c2)cc1	9.24		
CC(C)C(OC(=O)c1ccco1)C(=O)NC1CCCC1 (configuration not stated)	7.21		
COC(=O)C1CCN(C(=O)CCC2CCCCC2)CC1	17.8		0.00651 µM [falling, full curve, poor fit]
Cc1ccc(S(=O)(=O)N/N=C(\c2ccccc2)c2cccnc2)cc1	6.25		7.31 µM [falling, partial curve, poor fit]
C/C=C/C(=O)OCC(=O)Nc1c(Cl)cccc1Cl	-44.6	3.66 µM [falling, full curve]	3.66 µM [falling, full curve]
O=C(c1ccccc1)c1ccc(OCC(=O)N2CCOCC2)cc1			20.6 µM [rising, single point]
COc1ccc(NC(=S)N2CCN(C(=O)c3ccco3)CC2)cc1	14.5		
Cc1ccc(N2C(=O)c3cccc4c([N+](=O)[O-])ccc(c34)C2=O)c2cccnc12	-18.8		6.51 µM [falling, single point]
c1ccc(-c2cc3c(N4CCN(c5ncccn5)CC4)ncnc3s2)cc1	-17.1	4.11 µM [falling, single point]	6.51 µM [falling, single point]
CC(=O)Nc1ccc(C(=O)OCC(=O)NC(=O)NC(C)(C)C)cc1	21.9		
Cc1c(N=Cc2ccc[nH]2)c(=O)n(-c2ccccc2)n1C	-11.9		0.103 µM [falling, full curve, poor fit]

SMILES	cell number change [%]	AC50 [1]	AC50 [2]
O=C(c1ccc([N+](=O)[O-])cc1Cl)N1CCN(c2ccccn2)CC1	6.4		
Cc1ccc(C(=O)Cn2c(C(=O)O)cc3ccccc32)cc1	8.2		
CC(C)(C)c1ccc(-c2nc(C=O)c3ccccn23)cc1	-9.73		0.731 µM [falling, full curve]
CS(=O)(=O)N(CC(=O)NCc1ccccc1)Cc1ccc(Cl)cc1	-15.1	0.0184 µM [falling, full curve, poor fit]	0.411 µM [falling, full curve]
COc1cc(C(=O)NCC(c2ccco2)N(C)C)cc(OC)c1OC (configuration not stated)	20.3		8.2 µM [rising, partial curve, poor fit]
CCOc1cc(S(=O)(=O)n2ccnc2)ccc1Cl	13.5		
COc1ccc(C(=O)NCCc2ccc(Cl)cc2)cc1S(=O)(=O)N1CCCCC1C (configuration not stated)	-0.501		29.1 µM [rising, single point]
Cn1cc(CCC(=O)NC2CC(C)(C)Cc3c2cnn3-c2ccc(F)cc2)cn1 (configuration not stated)	1.66		0.58 µM [rising, single point]
COc1cccc(NC(=O)COC(=O)C2CC3CCCC(C2)C3=O)c1 (configuration not stated)	18.2	4.11 µM [falling, single point]	4.61 µM [falling, single point]
Cn1cc(CN2CCC(n3nccc3NC(=O)C3CCCC3)CC2)cn1	15.9		
O=C(CCc1ccc(S(=O)(=O)N2CCOCC2)cc1)Nc1nccs1	5.92		9.2 µM [rising, partial curve, poor fit]
CCc1ccc(C(=O)N2CCN(c3ccc(NC(=O)c4cccnc4)cc3)CC2)cc1	-22.3		2.31 µM [rising, partial curve, poor fit]
CCOC(=O)COc1ccc(S(=O)(=O)N2CCc3ccccc3C2)cc1	-58.8	32.6 µM [falling, single point]	0.731 µM [falling, single point]
C=CCNC(=O)C(C#N)c1nc2ccccc2nc1N1CCN(Cc2ccccc2)CC1 (configuration not stated)	-13		
Cc1cccc(NC(=S)NC23CN4CN(CN(C4)C2)C3)c1	5.74		
O=C(C1CCCO1)N(Cc1ccccc1)c1ccccc1 (configuration not stated)	-69.1	16.4 µM [falling, partial curve]	18.4 µM [falling, partial curve]
COc1ccc(CCNC(=O)C2CCCN2S(=O)(=O)c2cccc3nsnc23)cc1OC (configuration not stated)			4.11 µM [rising, partial curve, poor fit]
C/C(=N/NS(=O)(=O)c1ccc(Cl)cc1)c1ccncc1	-9.41	2.06 µM [rising, partial curve, poor fit]	0.58 µM [rising, single point]
COc1ccc(C2CC(c3ccc(OC)cc3)n3nc(NC(=O)c4ccco4)nc3N2)cc1 (configuration not stated)	17.4		
COc1ccc(N2C(=O)C(CC(=O)Nc3ccccc3)N(Cc3ccc4c(c3)OCO4)C2=O)cc1 (configuration not stated)	-30.1	0.326 µM [falling, full curve, poor fit]	6.51 µM [falling, single point]
O=C1CC(N2CCC(c3nc4ccccc4o3)CC2)C(=O)N1 (configuration not stated)	-26.4		29.1 µM [falling, partial curve, poor fit]
